These results are taken from PubChem BioAssay AID493014 (National Center for Advancing Translational Sciences (NCATS), 2011).

The nature of this test: qHTS Assay to Find Inhibitors of Chronic Active B-Cell Receptor Signaling. The following applies: ABC-DLBCL IkBa-CBG/CBR reporter, luminescence ratio (green luciferase fused to IkBa over red control in TMD8 lymphoma cells), 4 h. In short, it runs like this: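 TMD8 ABC-DLBCL cells carrying doxycycline-inducible green luciferase fused to IkappaBalpha plus unfused red luciferase were exposed to compounds (up to 46 uM) for 4 hrs at 37C. Activity came from the overlap-corrected green/red luminescence ratio.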
A general note: qHTS replaces the single test concentration by a dilution series.

The mark [1] stands for this setting: measured here: CBR red luminescence, cell number.
[2] abbreviates: measured here: IkBa-CBG green luminescence.

This is one part of the list. Shown are side measurements of this screen, not its main read-out; they come without a call. Most of these compounds were active or inconclusive in the main read-out, so they are no random draw. The note in brackets gives the kind of curve behind each potency; many fits are weak.

Regarding `Cc1ccc(CNc2nc(-c3cccnc3)nc3ccccc23)cc1`, the AC50 under setting [1] is 22.4 µM [falling, single point].
Same read-out and setting: in the case of `O=P(O)(CP(=O)(c1ccccc1)c1ccccc1)c1ccccc1` it was 20 µM [falling, partial curve].
As to `Cc1ccccc1-[n+]1c(-c2ccccc2)cc(-c2ccccc2)cc1-c1ccccc1`, under setting [1], the AC50 was 13 µM [falling, partial curve, poor fit].
`O=C(N/N=C/c1c(O)n(CCc2ccccc2)c(=O)[nH]c1=O)c1ccccc1`: the AC50 under setting [1] was 2.51 µM [falling, full curve, poor fit].
Consider `CS(=O)(=O)NNP(=O)(NNS(C)(=O)=O)NC(=O)c1ccccc1`, for which the concentration at half-maximal activity (AC50) under setting [1] was 2 µM [falling, full curve].
As to `C=CCn1c(O)c(Cc2ccc(OCC)cc2)c(=O)[nH]c1=O`, the AC50 under setting [1] was 35.5 µM [rising, single point].
As to `COc1ccc(S(=O)(=O)NCCc2sc3nc(-c4ccc(C)cc4)nn3c2C)cc1F`, the AC50 under setting [1] was 11.2 µM [falling, single point].
As for `O=C(Cn1cc(C(=O)c2ccccc2)c2ccccc21)NCc1ccco1`, the AC50 under setting [1] is 15.8 µM [falling, partial curve, poor fit].
Turning to `CC(=O)c1ccccc1NC(=O)C1C2CCC(O2)C1C(=O)O` (configuration not stated), the AC50 under setting [1] is 29.1 µM [rising, single point].
For `Cc1c(C(c2ccc(Br)cc2)c2c(O)c3ccccc3oc2=O)c(=O)n(-c2ccccc2)n1C` (configuration not stated), under setting [1], the AC50 was 11.2 µM [falling, partial curve, poor fit].
On the same count and under the same terms, the same measure for `COc1ccc(CN2CCc3ccc(NC(=O)CCc4ccccc4OC)cc3C2)c(O)c1`: 10 µM [falling, partial curve, poor fit].
For the molecule `COC(=O)C1=C(c2ccccc2OCc2ccccc2)C[C@@H]2CC[C@H]1N2C(=O)NC1CCN(Cc2ccccc2)CC1`, the AC50 under setting [1] is 16.4 µM [falling, partial curve, poor fit].
For the molecule `CCOP(=O)(OCC)C(NC(=O)Nc1ccc(Cl)cc1)C(N)=O` (configuration not stated), the AC50 under setting [1] is 5.8 µM [rising, full curve].
Still for that read-out and setting: the same measure for `O=C(N/N=C\C1C(=O)NC(=S)N(c2ccccc2)C1=O)c1ccc(O)cc1` (configuration not stated): 0.794 µM [falling, full curve].
On to `COC(=O)C[C@]1(C(=O)OC)CN(C#N)N(c2ccc(Cl)cc2)C12c1ccccc1-c1ccccc12`, for which the AC50 under setting [1] was 1.46 µM [falling, full curve].
As for `Cc1ccc(Cn2cccc(C(=O)Nc3cc(C)on3)c2=O)cc1`, the half-maximal activity concentration (AC50) under setting [2] was 2.82 µM [rising, full curve, poor fit].
With `O=[As](O)(O)c1ccc(N=Nc2ccc(O)cc2)cc1`, under setting [1], the AC50 is 35.5 µM [falling, single point].
Turning to `CN1CCN(c2nc(N)c(Br)c(Cl)n2)CC1`, the AC50 under setting [1] was 25.1 µM [rising, single point].
On the same count and under the same terms, in the case of `O=C(CCN1C(=O)/C(=C/c2ccc(F)cc2)SC1=S)NCCc1cnc[nH]1` it was 11.2 µM [falling, partial curve].
For `COc1cc(C)c(CNCCc2c[nH]c3ccccc23)cc1C`, the AC50 under setting [1] was 11.2 µM [falling, partial curve].
For `Fc1ccc(Cn2nnnc2CN2CCC(n3nnc4cc(C(F)(F)F)ccc43)CC2)cc1`, under setting [1], the AC50 was 1 µM [falling, partial curve, poor fit].
For `O=[N+]([O-])c1ccc2c(c1)C(c1ccccc1)=NCCN2`, the AC50 under setting [1] was 35.5 µM [falling, single point].
On to `CCOC(=O)c1cc2c(cn1)[nH]c1ccccc12`, for which the AC50 under setting [1] was 12.6 µM [falling, partial curve, poor fit].
In the case of `CCC(=NCCc1c[nH]c2ccccc12)c1c(O)n(C)c(=O)n(C)c1=O`, the AC50 under setting [1] was 3.26 µM [rising, single point].
Consider `COC(=O)N(c1ccc(OC)cc1)P1(=S)OCCC(C)O1` (configuration not stated), for which the AC50 under setting [1] is 5.8 µM [rising, full curve, poor fit].
As for `CC(C(=O)c1ccc2ccccc2c1)N1CCCCC1` (configuration not stated), under setting [1], the AC50 is 5.01 µM [rising, full curve, poor fit].
Turning to `CC(C)CC(NS(=O)(=O)c1ccc2c(c1)oc(=O)n2C)C(=O)NCc1cccnc1` (configuration not stated), under setting [1], the AC50 is 1.84 µM [rising, single point].
`O=C1NC(=O)C(=Cc2coc3ccccc3c2=O)C(=O)N1`: the AC50 under setting [1] was 22.4 µM [falling, partial curve].
Turning to `O=C(CSc1nnc(-c2ccc(O)cc2)o1)N1CCOCC1`, the AC50 under setting [1] was 25.1 µM [falling, partial curve, poor fit].
Consider `Cn1c2ccccc2c2c(C(=O)N3CCC4(CC3)OCCO4)cn(C3CCCCC3)c(=O)c21`, for which the AC50 under setting [1] was 3.26 µM [rising, partial curve, poor fit].
With `CCCCCc1nc2ccccc2c(=O)n1-c1ccc(Cl)cc1[N+](=O)[O-]`, under setting [1], the AC50 was 6.31 µM [falling, single point].
Same read-out and setting: in the case of `O=c1c2ccccc2nc(/C=C/c2ccccc2F)n1-c1ccccc1O` it was 11.2 µM [falling, partial curve, poor fit].
Same read-out and setting: the same measure for `COc1ccccc1Oc1coc2cc(OC(=O)N3CCOCC3)ccc2c1=O`: 4.61 µM [rising, single point]; for `CCN1CCN(Cc2ccccc2C)CC1`: 6.51 µM [rising, single point]; for `CC(C)CCOP(=O)(c1ccc(N(C)C)cc1)C(O)c1ccccc1` (configuration not stated): 10 µM [falling, single point].
As for `CN1CCC(N(C)c2nc(-c3ccccc3)nc3ccccc23)CC1`, the AC50 under setting [1] is 29.1 µM [falling, single point].
In the case of `COc1ccc2c(CN3CC=C(c4ccccc4)CC3)cc(=O)oc2c1`, the AC50 under setting [1] is 7.94 µM [falling, partial curve, poor fit].
Still for that read-out and setting: in the case of `COc1cccc(N=Nc2c(O)[nH]c(=S)[nH]c2=O)c1` it was 8.91 µM [falling, partial curve, poor fit]; in that of `Cc1ccc(-n2c(C)cc(/C=C3/C(=O)NC(=O)N(Cc4ccco4)C3=O)c2C)cc1`, 29.1 µM [falling, single point]; in that of `COC(=O)C1=C(c2cccc(OCc3ccccc3)c2)C[C@@H]2CC[C@H]1N2C(=O)NCc1cc(C)oc1C(F)(F)F`, 32.6 µM [falling, partial curve, poor fit].
Regarding `COC(=O)C1=C(c2ccc(Cl)c(C(F)(F)F)c2)C[C@@H]2CC[C@H]1N2C(=O)NCCOc1ccccc1`, the AC50 under setting [1] is 29.1 µM [falling, single point].
On to `CC(C)N1C(=O)NC(=O)C2(Cc3cc([N+](=O)[O-])ccc3N(C)C2c2ccccc2)C1=O` (configuration not stated), for which the AC50 under setting [1] was 29.1 µM [falling, single point].
As to `Cc1oc(-c2ccccc2Cl)nc1CN1C(=O)CN=C(c2ccccc2)c2ccccc21`, the AC50 under setting [1] was 25.9 µM [falling, partial curve, poor fit].
Turning to `COCCOC(=O)c1c(N)n(Cc2ccc(OC)cc2)c2nc3ccccc3nc12`, under setting [1], the AC50 was 0.731 µM [falling, full curve, poor fit].
Still for that read-out and setting: the same measure for `Cc1cccc(N2C(=O)NC(=O)/C(=C\c3cccn3-c3ccc(Cl)cc3)C2=O)c1`: 31.6 µM [rising, single point].
Regarding `C=C1C(=O)O[C@H]2C[C@@H](C)[C@@H]3C=CC(=O)[C@@]3(C)C[C@H]12`, the AC50 runs as follows: under setting [1], 1.58 µM [falling, full curve]; under setting [2], 20 µM [rising, partial curve, poor fit].
Regarding `O=C(NCc1cccnc1)Nc1ccc([N+](=O)[O-])cc1`, the AC50 under setting [1] was 20 µM [rising, single point].
As to `C[C@@H]1CC[C@H]2[C@@H](C)C(=O)O[C@@H]3O[C@@]4(C)CC[C@@H]1[C@]32OO4`, the AC50 under setting [1] is 1.58 µM [falling, partial curve, poor fit].
As to `CCOc1ccc2nc(N=Nc3c(O)[nH]c(=S)[nH]c3=O)sc2c1`, under setting [1], the AC50 is 3.55 µM [rising, full curve, poor fit].
As to `O=C(NC(NC(=S)Nc1cccc(Cl)c1)C(Cl)(Cl)Cl)OCc1ccccc1` (configuration not stated), the AC50 under setting [1] is 22.4 µM [falling, single point].
For the molecule `COc1ccc(C2C([N+](=O)[O-])=C(N)Oc3c2c(=O)oc2ccccc32)cc1` (configuration not stated), under setting [1], the AC50 is 0.184 µM [falling, full curve].
`O=C(Cn1c(=O)oc2cc(S(=O)(=O)N3CCCCC3)ccc21)N1CCc2ccccc2C1`: the AC50 under setting [1] is 6.51 µM [rising, single point].
On to `OCCN1CCN(c2nc(-c3ccccc3O)nc3ccccc23)CC1`, for which, under setting [1], the AC50 was 14.1 µM [falling, single point].
Same read-out and setting: in the case of `CN1CCN(c2ccc([N+](=O)[O-])c(N3CCCCC3)c2)CC1` it was 22.4 µM [rising, single point].
For the molecule `O=C1CSC(c2ccccc2[N+](=O)[O-])N1c1ccc(O)cc1` (configuration not stated), the AC50 under setting [1] was 22.4 µM [falling, single point].
Consider `Cc1ccc(C(O)(c2ccc(C)c(C)c2)C2CN3CCC2CC3)cc1C` (configuration not stated), for which the AC50 under setting [1] was 14.1 µM [falling, single point].
As for `COC(=O)C(Cc1ccc(N(CCCl)CCCl)cc1)N=Cc1ccccc1O` (configuration not stated), under setting [1], the AC50 is 35.5 µM [falling, single point].
Same read-out and setting: in the case of `COC(=O)C1=C(c2cccc(OCc3ccccc3)c2)C[C@@H]2CC[C@H]1N2C(=O)NCc1ccccc1OC` it was 20.6 µM [falling, single point].
Take `COC(=O)C1=C(c2ccc(F)cc2OCc2ccccc2)C[C@@H]2CC[C@H]1N2C(=O)NCc1ccc(F)cc1`: the AC50 under setting [1] was 16.4 µM [falling, partial curve].
Regarding `COC12CCC3(CC1C(C)(O)C(C)(C)C)[C@H]1Cc4ccc(OC5OC(C(=O)O)[C@@H](O)C(O)[C@H]5O)c5c4[C@@]3(CCN1CC1CC1)C2O5` (some centres not stated), the AC50 under setting [1] was 16.4 µM [rising, partial curve, poor fit].
Regarding `CC(C)C1(C)N=C(c2ncccc2C(=O)O)NC1=O` (configuration not stated), under setting [1], the AC50 is 0.146 µM [rising, full curve, poor fit].

For orientation: AC50 means the concentration giving half of the maximal activity seen.
